Results are given in words; binding and its absence hold for the method and conditions named. Some results given as binding are weak or reduced against the parent protein; the word gives no strength. Sequences can lack the tags named with a protein.
How the values were obtained:
Assay in all cases: tandem affinity co-purification (HisTrap, Strep-Tactin) and SEC; condensin subunits overexpressed together in S. cerevisiae; HisTrap on Brn1-His12-HA3, Strep-Tactin on Smc4-StrepII3 (wash with 500 mM NaCl), Superose 6; SDS-PAGE and Coomassie staining
[1] = molecular target: T1, Sc Brn1_(BC1/2)-His12-HA3 (S. cerevisiae) (UniProt P38170)
T1 sequence: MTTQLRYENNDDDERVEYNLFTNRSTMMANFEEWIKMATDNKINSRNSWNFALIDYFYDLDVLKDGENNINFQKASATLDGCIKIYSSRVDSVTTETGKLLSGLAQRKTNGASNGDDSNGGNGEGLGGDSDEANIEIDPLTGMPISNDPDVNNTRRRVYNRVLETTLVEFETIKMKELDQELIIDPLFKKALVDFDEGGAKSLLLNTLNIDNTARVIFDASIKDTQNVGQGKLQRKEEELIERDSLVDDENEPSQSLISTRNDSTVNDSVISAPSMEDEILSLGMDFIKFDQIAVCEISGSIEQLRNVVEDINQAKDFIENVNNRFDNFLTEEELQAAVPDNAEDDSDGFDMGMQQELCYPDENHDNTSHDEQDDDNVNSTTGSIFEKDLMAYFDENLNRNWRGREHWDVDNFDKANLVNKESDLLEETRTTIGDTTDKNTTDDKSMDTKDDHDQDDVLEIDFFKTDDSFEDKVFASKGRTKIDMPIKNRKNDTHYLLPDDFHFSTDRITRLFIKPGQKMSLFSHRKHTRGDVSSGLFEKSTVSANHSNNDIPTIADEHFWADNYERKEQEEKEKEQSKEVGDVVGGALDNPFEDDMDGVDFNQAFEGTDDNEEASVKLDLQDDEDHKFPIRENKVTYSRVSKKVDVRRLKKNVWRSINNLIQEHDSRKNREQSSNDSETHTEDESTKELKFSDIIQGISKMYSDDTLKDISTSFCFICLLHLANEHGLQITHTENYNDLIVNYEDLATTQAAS

[2] = molecular target: T2, Sc Brn1-His12-HA3 (S. cerevisiae) (UniProt P38170)
T2 sequence: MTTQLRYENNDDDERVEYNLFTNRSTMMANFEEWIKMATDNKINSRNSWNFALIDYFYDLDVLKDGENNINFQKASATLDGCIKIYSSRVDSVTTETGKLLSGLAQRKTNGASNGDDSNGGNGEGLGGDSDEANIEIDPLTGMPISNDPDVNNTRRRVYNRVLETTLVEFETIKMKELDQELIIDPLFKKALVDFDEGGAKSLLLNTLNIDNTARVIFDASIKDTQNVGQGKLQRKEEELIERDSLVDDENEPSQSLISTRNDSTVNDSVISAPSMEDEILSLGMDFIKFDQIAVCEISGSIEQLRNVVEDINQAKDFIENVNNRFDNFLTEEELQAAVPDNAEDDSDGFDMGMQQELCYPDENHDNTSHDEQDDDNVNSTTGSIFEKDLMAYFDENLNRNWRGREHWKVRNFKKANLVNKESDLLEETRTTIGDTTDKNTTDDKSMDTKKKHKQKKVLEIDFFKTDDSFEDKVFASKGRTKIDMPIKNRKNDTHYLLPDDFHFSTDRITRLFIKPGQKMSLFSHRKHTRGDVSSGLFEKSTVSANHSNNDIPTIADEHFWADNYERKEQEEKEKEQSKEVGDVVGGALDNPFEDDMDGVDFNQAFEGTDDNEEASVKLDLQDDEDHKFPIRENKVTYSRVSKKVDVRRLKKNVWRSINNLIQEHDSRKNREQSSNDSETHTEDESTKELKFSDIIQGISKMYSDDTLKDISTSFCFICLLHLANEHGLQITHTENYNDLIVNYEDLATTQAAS

[3] = molecular target: T3, Sc Brn1ΦD-His12-HA3 (S. cerevisiae) (UniProt P38170)
T3 sequence: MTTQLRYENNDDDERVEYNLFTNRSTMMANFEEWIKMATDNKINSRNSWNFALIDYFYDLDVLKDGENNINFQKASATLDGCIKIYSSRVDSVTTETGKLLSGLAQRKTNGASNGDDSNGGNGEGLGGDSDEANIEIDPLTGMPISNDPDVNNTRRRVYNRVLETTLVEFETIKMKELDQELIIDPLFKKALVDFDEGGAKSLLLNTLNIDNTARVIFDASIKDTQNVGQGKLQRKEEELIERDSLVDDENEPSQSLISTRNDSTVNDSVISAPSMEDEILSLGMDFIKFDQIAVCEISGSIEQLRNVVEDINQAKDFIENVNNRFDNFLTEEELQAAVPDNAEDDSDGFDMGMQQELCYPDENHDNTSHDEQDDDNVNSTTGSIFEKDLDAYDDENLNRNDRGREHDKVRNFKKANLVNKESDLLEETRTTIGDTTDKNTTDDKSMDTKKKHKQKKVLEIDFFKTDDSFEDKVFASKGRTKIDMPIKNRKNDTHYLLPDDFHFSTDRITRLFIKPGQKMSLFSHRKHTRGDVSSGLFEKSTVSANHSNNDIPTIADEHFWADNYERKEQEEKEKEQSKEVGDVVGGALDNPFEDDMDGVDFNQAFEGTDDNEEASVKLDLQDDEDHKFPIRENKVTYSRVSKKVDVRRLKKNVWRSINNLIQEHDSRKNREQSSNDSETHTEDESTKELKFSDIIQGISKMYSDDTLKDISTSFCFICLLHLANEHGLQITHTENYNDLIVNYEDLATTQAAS

Measured: binding

B1: Sc Smc2 (protein, UniProt P38989 1-1170)
chain: MKVEELIIDGFKSYATRTVITDWDPQFNAITGLNGSGKSNILDAICFVLGIASMSTVRASSLQDLIYKRGQAGVTKASVTIVFDNTDKSNSPIGFTNSPQISVTRQVVLGGTSKYLINGHRAPQQSVLQLFQSVQLNINNPNFLIMQGKITKVLNMKPSEILSLIEEAAGTKMFEDRREKAERTMSKKETKLQENRTLLTEEIEPKLEKLRNEKRMFLEFQSTQTDLEKTERIVVSYEYYNIKHKHTSIRETLENGETRMKMLNEFVKKTSEEIDSLNEDVEEIKLQKEKELHKEGTISKLENKENGLLNEISRLKTSLSIKVENLNDTTEKSKALESEIASSSAKLIEKKSAYANTEKDYKMVQEQLSKQRDLYKRKEELVSTLTTGISSTGAADGGYNAQLAKAKTELNEVSLAIKKSSMKMELLKKELLTIEPKLKEATKDNELNVKHVKQCQETCDKLRARLVEYGFDPSRIKDLKQREDKLKSHYYQTCKNSEYLKRRVTNLEFNYTKPYPNFEASFVHGVVGQLFQIDNDNIRYATALQTCAGGRLFNVVVQDSQTATQLLERGRLRKRVTIIPLDKIYTRPISSQVLDLAKKIAPGKVELAINLIRFDESITKAMEFIFGNSLICEDPETAKKITFHPKIRARSITLQGDVYDPEGTLSGGSRNTSESLLVDIQKYNQIQKQIETIQADLNHVTEELQTQYATSQKTKTIQSDLNLSLHKLDLAKRNLDANPSSQIIARNEEILRDIGECENEIKTKQMSLKKCQEEVSTIEKDMKEYDSDKGSKLNELKKELKLLAKELEEQESESERKYDLFQNLELETEQLSSELDSNKTLLHNHLKSIESLKLENSDLEGKIRGVEDDLVTVQTELNEEKKRLMDIDDELNELETLIKKKQDEKKSSELELQKLVHDLNKYKSNTNNMEKIIEDLRQKHEFLEDFDLVRNIVKQNEGIDLDTYRERSKQLNEKFQELRKKVNPNIMNMIENVEKKEAALKTMIKTIEKDKMKIQETISKLNEYKRETLVKTWEKVTLDFGNIFADLLPNSFAKLVPCEGKDVTQGLEVKVKLGNIWKESLIELSGGQRSLIALSLIMALLQFRPAPMYILDEVDAALDLSHTQNIGHLIKTRFKGSQFIVVSLKEGMFANANRVFRTRFQDGTSVVSIM
binds: [1] | [2] | [3]

B2: Sc Smc4-StrepII3 (protein, UniProt Q12267 1-1418)
chain: MSDSPLSKRQKRKSAQEPELSLDQGDAEEDSQVENRVNLSENTPEPDLPALEASYSKSYTPRKLVLSSGENRYAFSQPTNSTTTSLHVPNLQPPKTSSRGRDHKSYSQSPPRSPGRSPTRRLELLQLSPVKNSRVELQKIYDRHQSSSKQQSRLFINELVLENFKSYAGKQVVGPFHTSFSAVVGPNGSGKSNVIDSMLFVFGFRANKMRQDRLSDLIHKSEAFPSLQSCSVAVHFQYVIDESSGTSRIDEEKPGLIITRKAFKNNSSKYYINEKESSYTEVTKLLKNEGIDLDHKRFLILQGEVENIAQMKPKAEKESDDGLLEYLEDIIGTANYKPLIEERMGQIENLNEVCLEKENRFEIVDREKNSLESGKETALEFLEKEKQLTLLRSKLFQFKLLQSNSKLASTLEKISSSNKDLEDEKMKFQESLKKVDEIKAQRKEIKDRISSCSSKEKTLVLERRELEGTRVSLEERTKNLVSKMEKAEKTLKSTKHSISEAENMLEELRGQQTEHETEIKDLTQLLEKERSILDDIKLSLKDKTKNISAEIIRHEKELEPWDLQLQEKESQIQLAESELSLLEETQAKLKKNVETLEEKILAKKTHKQELQDLILDLKKKLNSLKDERSQGEKNFTSAHLKLKEMQKVLNAHRQRAMEARSSLSKAQNKSKVLTALSRLQKSGRINGFHGRLGDLGVIDDSFDVAISTACPRLDDVVVDTVECAQHCIDYLRKNKLGYARFILLDRLRQFNLQPISTPENVPRLFDLVKPKNPKFSNAFYSVLRDTLVAQNLKQANNVAYGKKRFRVVTVDGKLIDISGTMSGGGNHVAKGLMKLGTNQSDKVDDYTPEEVDKIERELSERENNFRVASDTVHEMEEELKKLRDHEPDLESQISKAEMEADSLASELTLAEQQVKEAEMAYVKAVSDKAQLNVVMKNLERLRGEYNDLQSETKTKKEKIKGLQDEIMKIGGIKLQMQNSKVESVCQKLDILVAKLKKVKSASKKSGGDVVKFQKLLQNSERDVELSSDELKVIEEQLKHTKLALAENDTNMNETLNLKVELKEQSEQLKEQMEDMEESINEFKSIEIEMKNKLEKLNSLLTYIKSEITQQEKGLNELSIRDVTHTLGMLDDNKMDSVKEDVKNNQELDQEYRSCETQDESEIKDAETSCDNYHPMNIDETSDEVSRGIPRLSEDELRELDVELIESKINELSYYVEETNVDIGVLEEYARRLAEFKRRKLDLNNAVQKRDEVKEQLGILKKKRFDEFMAGFNIISMTLKEMYQMITMGGNAELELVDSLDPFSEGVTFSVMPPKKSWRNITNLSGGEKTLSSLALVFALHKYKPTPLYVMDEIDAALDFRNVSIVANYIKERTKNAQFIVISLRNNMFELAQQLVGVYKRDNRTKSTTIKNIDILNRT
binds: [1] | [2] | [3]

Source: publication PMC5651216, “Structural Basis for a Safety-Belt Mechanism That Anchors Condensin to Chromosomes”
